The other results are listed elsewhere or left out.
What was measured:
Test in all cases: log2 fold change, soluble protein after heating vs DMSO (PISA); higher = thermal stabilisation; K562 lysate, 10 uM; active = over 0.2 and 3.5 SD of the protein, either way, in both replicates (recomputed)
[1] = compound: C1=CC=C(C=C1)[C@H](COC2=CC3=C(C=C2)NC(=O)N3)NC(=O)C4=CC=CN(C4=O)CC5=CC(=C(C=C5)F)F
Method in brief: (§1)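 K562 pellets were dounce-homogenised in PBS pH 7.4 with 1 mM MgCl2, and the crude extract at 1 mg/mL protein was treated with 10 μM compound for 30 min. Aliquots were heated for 3 min across 48°C-58°C, pooled, and brought to 0.5% NP-40 at 4°C; soluble protein was the supernatant after 21,000xg for 90 min. Soluble protein was quantified by TMTpro 16plex LC-MS/MS with channel sums equalised, and reported as log2 fold change in thermal stability against DMSO controls, with values from duplicates.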

Sequences of proteins named here, by UniProt entry; tags and fusion partners are left off. A change or cut given only in a name is not applied to a line headed by its entry.
UniProt Q96RT1: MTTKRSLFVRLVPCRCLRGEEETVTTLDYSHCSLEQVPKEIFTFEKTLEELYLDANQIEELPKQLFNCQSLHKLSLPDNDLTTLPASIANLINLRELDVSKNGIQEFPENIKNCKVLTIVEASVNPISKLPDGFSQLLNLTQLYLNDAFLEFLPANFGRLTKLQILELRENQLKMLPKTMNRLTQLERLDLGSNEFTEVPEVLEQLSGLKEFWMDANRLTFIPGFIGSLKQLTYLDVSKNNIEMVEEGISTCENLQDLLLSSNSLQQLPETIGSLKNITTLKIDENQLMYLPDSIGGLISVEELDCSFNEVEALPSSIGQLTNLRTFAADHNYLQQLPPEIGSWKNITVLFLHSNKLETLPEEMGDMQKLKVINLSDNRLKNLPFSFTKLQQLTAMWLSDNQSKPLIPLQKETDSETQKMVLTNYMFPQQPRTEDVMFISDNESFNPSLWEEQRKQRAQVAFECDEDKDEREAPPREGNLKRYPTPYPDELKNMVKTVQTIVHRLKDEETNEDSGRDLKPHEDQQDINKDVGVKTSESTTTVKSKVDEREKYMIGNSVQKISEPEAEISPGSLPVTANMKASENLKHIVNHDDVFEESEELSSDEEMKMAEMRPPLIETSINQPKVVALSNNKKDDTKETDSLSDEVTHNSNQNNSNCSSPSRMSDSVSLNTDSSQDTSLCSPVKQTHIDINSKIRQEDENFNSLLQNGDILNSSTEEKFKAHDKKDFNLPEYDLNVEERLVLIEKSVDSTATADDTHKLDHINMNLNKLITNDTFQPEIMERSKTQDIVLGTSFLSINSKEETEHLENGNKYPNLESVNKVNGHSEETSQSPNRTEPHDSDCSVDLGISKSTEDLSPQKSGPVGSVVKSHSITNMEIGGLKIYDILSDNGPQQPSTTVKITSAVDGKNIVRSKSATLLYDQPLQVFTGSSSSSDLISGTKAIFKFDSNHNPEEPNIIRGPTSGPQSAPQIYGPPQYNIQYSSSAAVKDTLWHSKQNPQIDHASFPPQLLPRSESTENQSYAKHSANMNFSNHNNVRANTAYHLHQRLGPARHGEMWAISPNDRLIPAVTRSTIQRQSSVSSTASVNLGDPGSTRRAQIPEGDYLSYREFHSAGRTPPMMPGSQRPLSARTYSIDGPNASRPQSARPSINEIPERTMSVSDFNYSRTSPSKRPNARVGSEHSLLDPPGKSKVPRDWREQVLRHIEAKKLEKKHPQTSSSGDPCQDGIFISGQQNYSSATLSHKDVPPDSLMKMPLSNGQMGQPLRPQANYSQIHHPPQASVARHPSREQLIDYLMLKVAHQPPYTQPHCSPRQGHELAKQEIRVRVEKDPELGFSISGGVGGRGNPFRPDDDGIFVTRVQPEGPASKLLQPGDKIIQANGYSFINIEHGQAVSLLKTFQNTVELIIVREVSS
UniProt Q9UBQ5, whole entry, looked up: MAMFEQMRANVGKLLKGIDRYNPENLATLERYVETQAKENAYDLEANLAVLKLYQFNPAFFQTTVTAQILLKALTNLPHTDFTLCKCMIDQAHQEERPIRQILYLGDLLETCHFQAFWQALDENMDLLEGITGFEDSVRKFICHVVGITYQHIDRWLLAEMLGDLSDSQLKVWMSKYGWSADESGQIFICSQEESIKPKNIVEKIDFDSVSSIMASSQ
UniProt O75822, whole entry, looked up: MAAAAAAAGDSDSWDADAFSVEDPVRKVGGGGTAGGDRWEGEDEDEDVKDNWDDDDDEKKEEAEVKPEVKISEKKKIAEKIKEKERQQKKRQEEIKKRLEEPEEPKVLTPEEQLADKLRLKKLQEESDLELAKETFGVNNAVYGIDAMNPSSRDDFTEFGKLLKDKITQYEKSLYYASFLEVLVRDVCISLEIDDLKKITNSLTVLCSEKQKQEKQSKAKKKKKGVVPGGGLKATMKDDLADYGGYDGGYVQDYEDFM
UniProt Q14232, whole entry, looked up: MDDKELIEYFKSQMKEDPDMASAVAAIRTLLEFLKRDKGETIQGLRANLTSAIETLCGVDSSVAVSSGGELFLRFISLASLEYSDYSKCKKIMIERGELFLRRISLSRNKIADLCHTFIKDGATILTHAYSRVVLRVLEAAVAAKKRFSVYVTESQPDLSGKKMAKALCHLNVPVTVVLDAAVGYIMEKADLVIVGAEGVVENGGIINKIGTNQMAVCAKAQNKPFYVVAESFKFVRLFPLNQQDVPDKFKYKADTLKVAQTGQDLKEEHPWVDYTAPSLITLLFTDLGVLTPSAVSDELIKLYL
UniProt P54852: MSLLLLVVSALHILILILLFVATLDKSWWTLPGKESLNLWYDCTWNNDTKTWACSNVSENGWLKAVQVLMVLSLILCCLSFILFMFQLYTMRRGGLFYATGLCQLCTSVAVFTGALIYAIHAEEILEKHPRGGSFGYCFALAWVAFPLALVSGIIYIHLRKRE
UniProt P50402: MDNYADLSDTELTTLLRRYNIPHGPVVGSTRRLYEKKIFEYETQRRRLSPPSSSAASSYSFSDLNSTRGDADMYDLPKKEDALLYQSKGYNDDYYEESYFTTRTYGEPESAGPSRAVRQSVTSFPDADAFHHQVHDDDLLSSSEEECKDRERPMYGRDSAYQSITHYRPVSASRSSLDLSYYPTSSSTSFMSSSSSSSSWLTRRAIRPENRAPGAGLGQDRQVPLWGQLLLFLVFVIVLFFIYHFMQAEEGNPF
UniProt Q7L775: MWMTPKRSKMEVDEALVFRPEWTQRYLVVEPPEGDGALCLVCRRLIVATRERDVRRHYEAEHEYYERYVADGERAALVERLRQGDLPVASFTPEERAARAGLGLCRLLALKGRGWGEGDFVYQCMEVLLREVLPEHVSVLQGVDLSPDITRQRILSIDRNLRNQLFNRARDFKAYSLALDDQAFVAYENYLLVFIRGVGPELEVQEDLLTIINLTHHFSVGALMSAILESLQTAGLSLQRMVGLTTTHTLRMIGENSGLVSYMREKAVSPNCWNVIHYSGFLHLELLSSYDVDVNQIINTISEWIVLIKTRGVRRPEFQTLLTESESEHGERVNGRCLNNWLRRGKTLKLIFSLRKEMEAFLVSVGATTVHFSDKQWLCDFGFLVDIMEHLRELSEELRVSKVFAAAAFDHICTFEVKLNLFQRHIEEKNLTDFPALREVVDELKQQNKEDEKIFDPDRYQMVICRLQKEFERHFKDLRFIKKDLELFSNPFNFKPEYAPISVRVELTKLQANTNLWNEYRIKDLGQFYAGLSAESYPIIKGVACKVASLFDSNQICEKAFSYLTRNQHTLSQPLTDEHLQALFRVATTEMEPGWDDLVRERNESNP
UniProt Q8N766: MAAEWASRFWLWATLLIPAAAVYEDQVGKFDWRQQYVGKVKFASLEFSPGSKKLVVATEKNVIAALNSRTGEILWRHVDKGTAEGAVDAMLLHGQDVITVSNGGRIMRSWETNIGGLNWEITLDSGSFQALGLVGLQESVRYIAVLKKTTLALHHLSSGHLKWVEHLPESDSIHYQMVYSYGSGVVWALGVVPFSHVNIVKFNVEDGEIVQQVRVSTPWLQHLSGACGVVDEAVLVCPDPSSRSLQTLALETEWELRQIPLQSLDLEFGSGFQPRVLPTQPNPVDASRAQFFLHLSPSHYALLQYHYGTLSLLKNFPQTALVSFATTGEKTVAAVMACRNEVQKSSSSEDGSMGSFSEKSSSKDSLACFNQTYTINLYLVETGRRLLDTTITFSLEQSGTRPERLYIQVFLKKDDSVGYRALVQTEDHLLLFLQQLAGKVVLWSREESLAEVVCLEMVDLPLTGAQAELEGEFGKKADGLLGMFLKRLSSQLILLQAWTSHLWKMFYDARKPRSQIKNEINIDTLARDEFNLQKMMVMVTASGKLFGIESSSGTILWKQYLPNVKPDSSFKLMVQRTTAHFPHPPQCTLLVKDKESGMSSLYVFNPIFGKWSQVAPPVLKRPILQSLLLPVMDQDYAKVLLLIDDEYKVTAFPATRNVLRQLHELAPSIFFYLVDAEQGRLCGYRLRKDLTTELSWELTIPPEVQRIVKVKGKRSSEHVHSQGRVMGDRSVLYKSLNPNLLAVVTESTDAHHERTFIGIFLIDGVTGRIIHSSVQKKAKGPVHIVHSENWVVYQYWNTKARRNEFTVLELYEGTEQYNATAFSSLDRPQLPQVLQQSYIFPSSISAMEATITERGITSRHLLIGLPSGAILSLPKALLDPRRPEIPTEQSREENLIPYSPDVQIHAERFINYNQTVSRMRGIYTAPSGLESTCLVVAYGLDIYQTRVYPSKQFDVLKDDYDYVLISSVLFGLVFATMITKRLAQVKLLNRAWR
UniProt O60841: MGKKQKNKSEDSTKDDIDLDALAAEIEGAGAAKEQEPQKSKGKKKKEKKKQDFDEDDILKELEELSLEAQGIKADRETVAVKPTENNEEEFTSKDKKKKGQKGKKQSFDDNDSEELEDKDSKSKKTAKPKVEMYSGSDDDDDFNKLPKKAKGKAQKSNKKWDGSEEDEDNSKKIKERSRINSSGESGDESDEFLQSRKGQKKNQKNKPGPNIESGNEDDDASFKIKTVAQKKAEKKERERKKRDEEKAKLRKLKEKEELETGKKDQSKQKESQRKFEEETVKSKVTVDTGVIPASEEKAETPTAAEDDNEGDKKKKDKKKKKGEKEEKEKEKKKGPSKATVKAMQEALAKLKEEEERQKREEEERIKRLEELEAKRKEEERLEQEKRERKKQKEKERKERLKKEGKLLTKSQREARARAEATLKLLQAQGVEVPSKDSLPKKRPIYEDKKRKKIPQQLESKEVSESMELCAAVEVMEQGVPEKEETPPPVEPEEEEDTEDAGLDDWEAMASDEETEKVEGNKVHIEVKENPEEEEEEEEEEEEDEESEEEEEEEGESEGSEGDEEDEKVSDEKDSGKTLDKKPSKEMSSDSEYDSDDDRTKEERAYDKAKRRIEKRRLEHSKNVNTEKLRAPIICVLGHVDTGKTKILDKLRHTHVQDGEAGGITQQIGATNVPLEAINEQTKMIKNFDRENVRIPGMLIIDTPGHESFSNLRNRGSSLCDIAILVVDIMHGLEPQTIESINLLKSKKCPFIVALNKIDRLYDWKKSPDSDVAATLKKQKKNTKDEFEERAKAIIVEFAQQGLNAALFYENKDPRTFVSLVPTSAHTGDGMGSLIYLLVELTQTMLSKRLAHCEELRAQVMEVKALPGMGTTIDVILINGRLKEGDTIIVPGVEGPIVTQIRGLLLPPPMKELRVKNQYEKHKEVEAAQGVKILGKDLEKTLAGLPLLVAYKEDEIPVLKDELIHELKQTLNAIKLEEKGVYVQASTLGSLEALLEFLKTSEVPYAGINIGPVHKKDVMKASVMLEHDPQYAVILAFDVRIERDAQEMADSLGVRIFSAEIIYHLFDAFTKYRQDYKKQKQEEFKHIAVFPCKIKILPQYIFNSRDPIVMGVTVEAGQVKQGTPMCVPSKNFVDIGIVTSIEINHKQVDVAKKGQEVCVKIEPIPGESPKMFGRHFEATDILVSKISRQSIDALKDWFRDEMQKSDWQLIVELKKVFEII
UniProt Q9UHY7: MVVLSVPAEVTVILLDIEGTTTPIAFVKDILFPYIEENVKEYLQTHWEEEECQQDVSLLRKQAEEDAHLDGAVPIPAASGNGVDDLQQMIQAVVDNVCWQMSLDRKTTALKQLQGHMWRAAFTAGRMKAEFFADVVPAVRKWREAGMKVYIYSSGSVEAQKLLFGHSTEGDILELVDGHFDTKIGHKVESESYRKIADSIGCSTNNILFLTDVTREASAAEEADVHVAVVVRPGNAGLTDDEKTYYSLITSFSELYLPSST
UniProt Q9Y6I3: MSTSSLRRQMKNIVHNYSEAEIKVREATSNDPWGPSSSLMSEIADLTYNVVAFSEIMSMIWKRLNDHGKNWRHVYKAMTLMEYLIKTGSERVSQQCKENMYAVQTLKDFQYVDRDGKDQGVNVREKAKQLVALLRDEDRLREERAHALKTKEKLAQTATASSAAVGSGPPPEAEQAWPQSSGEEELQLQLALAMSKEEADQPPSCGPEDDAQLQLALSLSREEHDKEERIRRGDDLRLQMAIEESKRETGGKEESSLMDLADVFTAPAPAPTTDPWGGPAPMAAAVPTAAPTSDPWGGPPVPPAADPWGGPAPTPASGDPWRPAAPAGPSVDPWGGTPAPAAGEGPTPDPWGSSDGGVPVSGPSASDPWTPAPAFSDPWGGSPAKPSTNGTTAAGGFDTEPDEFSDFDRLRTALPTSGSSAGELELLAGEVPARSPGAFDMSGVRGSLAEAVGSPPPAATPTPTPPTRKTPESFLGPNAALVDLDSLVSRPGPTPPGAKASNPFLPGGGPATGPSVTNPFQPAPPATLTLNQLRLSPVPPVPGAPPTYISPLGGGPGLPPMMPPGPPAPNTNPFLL

[2] = compound: CC1=C(SC2=C1C(=N[C@H](C3=NN=C(N32)C)CC(=O)N)C4=CC=C(C=C4)Cl)C
Method in brief: as §1

[3] = compound: CC1=C2C(=CC=C1)N=C(N(C2=O)C3=CC=CC=C3C)CN4C=NC5=C(N=CN=C54)N
Method in brief: as §1

[4] = compound: Cc1sc2c(c1C)C(c1ccc(Cl)cc1)=N[C@@H](CC(=O)OC(C)(C)C)c1nnc(C)n1-2
Method in brief: as §1

[5] = compound: c1ccc([C@@H]2C[C@H]2NC2CCNCC2)cc1
Method in brief: as §1

Measured: log2 fold change

ERC1 (UniProt X6RLX0)
inactive: [1] 0.013 | [2] -0.029 | [3] 0.022 | [4] -0.042 | [5] 0.034

ERBIN isoform 8 (UniProt Q96RT1)
inactive: [1] -0.012 | [2] 0.02 | [3] -0.04 | [4] 0.037 | [5] -0.048

ENDOG (UniProt Q14249)
inactive: [1] 0.032 | [2] -0.005 | [3] 0.012 | [4] -0.024 | [5] 0.038

EPB41 (UniProt P11171)
inactive: [1] -0.004 | [2] -0.021 | [3] -0.023 | [4] 0.027 | [5] 0.032

EIF4H isoform 2 (UniProt Q15056)
inactive: [1] 0.072 | [2] -0.183 | [3] -0.088 | [4] 0.132

EIF2B4 (UniProt Q9UI10)
inactive: [1] 0.028 | [2] 0.079 | [3] -0.005 | [4] -0.224

EIF3K (UniProt Q9UBQ5)
inactive: [1] -0.084 | [2] -0.026 | [3] 0.02 | [4] -0.01 | [5] 0.017

EIF4G1 (UniProt Q04637)
inactive: [1] -0.032 | [2] -0.002 | [3] 0.002 | [4] 0.032 | [5] 0.018

EIF2S2 (UniProt P20042)
inactive: [1] 0.038 | [2] -0.007 | [3] 0.019 | [4] -0.018 | [5] -0.02

EIF3J (UniProt O75822)
inactive: [1] 0.005 | [2] 0.027 | [3] -0.011 | [4] 0 | [5] -0.052

EPPK1 (UniProt P58107)
inactive: [1] -0.064 | [2] -0.012 | [3] 0.003 | [4] 0.01 | [5] 0.064

EIF2B1 (UniProt Q14232)
inactive: [1] 0.013 | [2] 0.013 | [3] -0.027 | [4] 0.035 | [5] -0.023

EIF6 (UniProt P56537)
inactive: [1] 0.064 | [2] -0.051 | [3] 0.004 | [4] -0.007 | [5] -0.176

Reprinted at random: two entries already listed, in no set order.
EIF2S2 (UniProt P20042)
inactive: [1] 0.038 | [2] -0.007 | [3] 0.019 | [4] -0.018 | [5] -0.02

EPPK1 (UniProt P58107)
inactive: [1] -0.064 | [2] -0.012 | [3] 0.003 | [4] 0.01 | [5] 0.064

(further entries)

EMP3 (UniProt P54852)
inactive: [1] 0.026 | [2] -0.028 | [3] -0.038 | [4] -0.113 | [5] -0.345

EMD (UniProt P50402)
inactive: [1] 0.098 | [2] 0.006 | [3] 0.013 | [4] -0.008 | [5] -0.032

EPM2AIP1 (UniProt Q7L775)
inactive: [1] -0.023 | [2] -0.054 | [3] 0.029 | [4] -0.016 | [5] 0.04

EMC1 (UniProt Q8N766)
inactive: [1] -0.011 | [2] 0.013 | [3] 0.008 | [4] 0.004 | [5] -0.021

EML4 (UniProt Q9HC35)
inactive: [1] 0.01 | [2] 0.006 | [3] 0.025 | [4] 0.001 | [5] -0.019

EIF4ENIF1 isoform 3 (UniProt Q9NRA8)
inactive: [1] 0.007 | [2] -0.04 | [3] 0.075 | [4] 0.031 | [5] -0.041

EIF5B (UniProt O60841)
inactive: [1] 0.001 | [2] -0.041 | [3] 0.005 | [4] 0 | [5] 0.001

EP300 (UniProt Q09472)
inactive: [1] -0.048 | [2] -0.013 | [3] 0.025 | [4] 0.005 | [5] -0.016

EIF4H (UniProt Q15056)
inactive: [1] 0.032 | [2] 0.021 | [3] -0.029 | [4] 0.019 | [5] -0.053

EPB41, A0A2R8Y6D0
inactive: [1] -0.052 | [2] 0.028 | [3] -0.071 | [4] 0.048 | [5] 0.11

EIF4EBP1 (UniProt Q13541)
inactive: [1] -0.027 | [2] 0.028 | [3] -0.081 | [4] -0.032 | [5] 0.084

ENOPH1 (UniProt Q9UHY7)
inactive: [1] -0.029 | [2] 0.004 | [3] 0.019 | [4] -0.008 | [5] 0.05

EPN1 (UniProt Q9Y6I3)
inactive: [1] -0.002 | [2] 0.019 | [3] -0.017 | [4] 0 | [5] -0.015

EIF2B3 (UniProt Q9NR50)
inactive: [1] -0.047 | [2] 0.008 | [3] -0.01 | [4] 0.004 | [5] 0.107

Source: the supplement of paper PMC10849652
